Source: article PMC8892516, “Intragenic suppressors unravel the role of the SCREAM ACT-like domain for bHLH partner selectivity in stomatal development” (Proceedings of the National Academy of Sciences of the …, 2022)

T1: MUTE fused to the DNA binding domain (Arabidopsis thaliana) (UniProt Q9M8K6)
T1 sequence: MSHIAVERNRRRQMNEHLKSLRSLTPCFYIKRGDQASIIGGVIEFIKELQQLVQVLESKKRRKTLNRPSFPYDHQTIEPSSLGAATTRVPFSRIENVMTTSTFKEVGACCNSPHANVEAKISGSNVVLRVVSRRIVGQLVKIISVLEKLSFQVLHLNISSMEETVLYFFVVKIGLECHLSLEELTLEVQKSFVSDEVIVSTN

T2: FAMA-nYFP (Arabidopsis thaliana) (UniProt Q56YJ8)
T2 sequence: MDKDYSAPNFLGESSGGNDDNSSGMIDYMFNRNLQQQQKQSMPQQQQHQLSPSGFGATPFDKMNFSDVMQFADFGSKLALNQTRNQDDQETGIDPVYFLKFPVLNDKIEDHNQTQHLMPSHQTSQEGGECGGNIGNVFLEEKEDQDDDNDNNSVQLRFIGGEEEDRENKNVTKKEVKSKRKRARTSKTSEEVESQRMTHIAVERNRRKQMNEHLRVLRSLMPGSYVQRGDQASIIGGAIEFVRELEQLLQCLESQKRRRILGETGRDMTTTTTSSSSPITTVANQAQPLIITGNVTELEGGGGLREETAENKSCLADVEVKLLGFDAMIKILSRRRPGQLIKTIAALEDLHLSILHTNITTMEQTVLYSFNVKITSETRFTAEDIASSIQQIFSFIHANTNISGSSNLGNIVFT

T3: SPCH-nYFP (Arabidopsis thaliana) (UniProt Q700C7)
T3 sequence: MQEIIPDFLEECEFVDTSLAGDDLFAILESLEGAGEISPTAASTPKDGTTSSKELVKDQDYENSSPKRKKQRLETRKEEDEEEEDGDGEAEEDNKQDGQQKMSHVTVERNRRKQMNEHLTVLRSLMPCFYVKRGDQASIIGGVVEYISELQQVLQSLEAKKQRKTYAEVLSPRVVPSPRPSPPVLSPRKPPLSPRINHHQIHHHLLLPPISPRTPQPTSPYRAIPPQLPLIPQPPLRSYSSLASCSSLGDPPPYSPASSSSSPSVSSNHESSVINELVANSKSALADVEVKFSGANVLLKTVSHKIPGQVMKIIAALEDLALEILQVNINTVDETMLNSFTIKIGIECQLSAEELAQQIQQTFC

T4: MUTE-nYFP (Arabidopsis thaliana) (UniProt Q9M8K6)
T4 sequence: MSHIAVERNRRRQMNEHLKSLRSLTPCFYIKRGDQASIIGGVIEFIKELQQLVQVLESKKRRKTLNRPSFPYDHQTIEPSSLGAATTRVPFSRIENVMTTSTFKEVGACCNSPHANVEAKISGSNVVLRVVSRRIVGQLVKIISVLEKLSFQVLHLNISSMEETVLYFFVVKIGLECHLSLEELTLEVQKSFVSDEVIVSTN

B1: MUTE-nYFP (protein, UniProt Q9M8K6 1-202)
chain: MSHIAVERNRRRQMNEHLKSLRSLTPCFYIKRGDQASIIGGVIEFIKELQQLVQVLESKKRRKTLNRPSFPYDHQTIEPSSLGAATTRVPFSRIENVMTTSTFKEVGACCNSPHANVEAKISGSNVVLRVVSRRIVGQLVKIISVLEKLSFQVLHLNISSMEETVLYFFVVKIGLECHLSLEELTLEVQKSFVSDEVIVSTN
B2: SCREAM (SCRM) fused to the activation domain (protein, UniProt Q9LSE2 1-494)
chain: MGLDGNNGGGVWLNGGGGEREENEEGSWGRNQEDGSSQFKPMLEGDWFSSNQPHPQDLQMLQNQPDFRYFGGFPFNPNDNLLLQHSIDSSSSCSPSQAFSLDPSQQNQFLSTNNNKGCLLNVPSSANPFDNAFEFGSESGFLNQIHAPISMGFGSLTQLGNRDLSSVPDFLSARSLLAPESNNNNTMLCGGFTAPLELEGFGSPANGGFVGNRAKVLKPLEVLASSGAQPTLFQKRAAMRQSSGSKMGNSESSGMRRFSDDGDMDETGIEVSGLNYESDEINESGKAAESVQIGGGGKGKKKGMPAKNLMAERRRRKKLNDRLYMLRSVVPKISKMDRASILGDAIDYLKELLQRINDLHNELESTPPGSLPPTSSSFHPLTPTPQTLSCRVKEELCPSSLPSPKGQQARVEVRLREGRAVNIHMFCGRRPGLLLATMKALDNLGLDVQQAVISCFNGFALDVFRAEQCQEGQEILPDQIKAVLFDTAGYAGMI
B3: SCRM_(L484F) fused to the activation domain (protein, UniProt Q9LSE2 1-494)
chain: MGLDGNNGGGVWLNGGGGEREENEEGSWGRNQEDGSSQFKPMLEGDWFSSNQPHPQDLQMLQNQPDFRYFGGFPFNPNDNLLLQHSIDSSSSCSPSQAFSLDPSQQNQFLSTNNNKGCLLNVPSSANPFDNAFEFGSESGFLNQIHAPISMGFGSLTQLGNRDLSSVPDFLSARSLLAPESNNNNTMLCGGFTAPLELEGFGSPANGGFVGNRAKVLKPLEVLASSGAQPTLFQKRAAMRQSSGSKMGNSESSGMRRFSDDGDMDETGIEVSGLNYESDEINESGKAAESVQIGGGGKGKKKGMPAKNLMAERRRRKKLNDRLYMLRSVVPKISKMDRASILGDAIDYLKELLQRINDLHNELESTPPGSLPPTSSSFHPLTPTPQTLSCRVKEELCPSSLPSPKGQQARVEVRLREGRAVNIHMFCGRRPGLLLATMKALDNLGLDVQQAVISCFNGFALDVFRAEQCQEGQEILPDQIKAVFFDTAGYAGMI
B4: scrm-D_(L484F) fused to the activation domain (protein, UniProt Q9LSE2 1-494)
chain: MGLDGNNGGGVWLNGGGGEREENEEGSWGRNQEDGSSQFKPMLEGDWFSSNQPHPQDLQMLQNQPDFRYFGGFPFNPNDNLLLQHSIDSSSSCSPSQAFSLDPSQQNQFLSTNNNKGCLLNVPSSANPFDNAFEFGSESGFLNQIHAPISMGFGSLTQLGNRDLSSVPDFLSARSLLAPESNNNNTMLCGGFTAPLELEGFGSPANGGFVGNRAKVLKPLEVLASSGAQPTLFQKHAAMRQSSGSKMGNSESSGMRRFSDDGDMDETGIEVSGLNYESDEINESGKAAESVQIGGGGKGKKKGMPAKNLMAERRRRKKLNDRLYMLRSVVPKISKMDRASILGDAIDYLKELLQRINDLHNELESTPPGSLPPTSSSFHPLTPTPQTLSCRVKEELCPSSLPSPKGQQARVEVRLREGRAVNIHMFCGRRPGLLLATMKALDNLGLDVQQAVISCFNGFALDVFRAEQCQEGQEILPDQIKAVFFDTAGYAGMI
B5: scrm-D fused to the activation domain (protein, UniProt Q9LSE2 1-494)
chain: MGLDGNNGGGVWLNGGGGEREENEEGSWGRNQEDGSSQFKPMLEGDWFSSNQPHPQDLQMLQNQPDFRYFGGFPFNPNDNLLLQHSIDSSSSCSPSQAFSLDPSQQNQFLSTNNNKGCLLNVPSSANPFDNAFEFGSESGFLNQIHAPISMGFGSLTQLGNRDLSSVPDFLSARSLLAPESNNNNTMLCGGFTAPLELEGFGSPANGGFVGNRAKVLKPLEVLASSGAQPTLFQKHAAMRQSSGSKMGNSESSGMRRFSDDGDMDETGIEVSGLNYESDEINESGKAAESVQIGGGGKGKKKGMPAKNLMAERRRRKKLNDRLYMLRSVVPKISKMDRASILGDAIDYLKELLQRINDLHNELESTPPGSLPPTSSSFHPLTPTPQTLSCRVKEELCPSSLPSPKGQQARVEVRLREGRAVNIHMFCGRRPGLLLATMKALDNLGLDVQQAVISCFNGFALDVFRAEQCQEGQEILPDQIKAVLFDTAGYAGMI

What was measured:
[1] = molecular target: T1, MUTE fused to the DNA binding domain (Arabidopsis thaliana); test: two-hybrid; Matchmaker 3 system, yeast AH109; DNA binding domain fusions as bait, activation domain fusions as prey; SD -Trp -Leu -His with 0.1, 0.5 and 1 mM 3-amino-1,2,4-triazole
[2] = molecular target: T2, FAMA-nYFP (Arabidopsis thaliana); test: split reporter; BiFC, nYFP and cYFP fusions coinfiltrated with p19 into N. benthamiana leaves, confocal imaging 2 d after infiltration
[3] = molecular target: T3, SPCH-nYFP (Arabidopsis thaliana); test: as above
[4] = molecular target: T4, MUTE-nYFP (Arabidopsis thaliana); test: as above
[5] = molecular target: scrm-DΔC-cYFP (Arabidopsis thaliana) (UniProt Q9LSE2); test: split reporter; BiFC; N. benthamiana leaves co-infiltrated with nYFP and cYFP fusions and p19; confocal imaging 2 d after infiltration
[6] = molecular target: ΔNFAMA fused to the DNA binding domain (Arabidopsis thaliana); test: two-hybrid; Matchmaker 3 system, yeast AH109; DNA binding domain fusions as bait, activation domain fusions as prey; SD -Trp -Leu -His with 0.1, 0.5 and 1 mM 3-amino-1,2,4-triazole
[7] = molecular target: ΔNSPCH fused to the DNA binding domain (Arabidopsis thaliana); test: as above

Row | Molecule | binding [6] | binding [7] | further results
1 | SCRMΔC fused to the activation domain (Arabidopsis thaliana) (domain or fragment) |  |  | binding [1]: no binding
2 | SCRMΔC-cYFP (Arabidopsis thaliana) (domain or fragment) |  |  | binding [2]: binds; binding [3]: binds
3 | scrm-DΔC fused to the activation domain (Arabidopsis thaliana) (domain or fragment) |  |  | binding [1]: no binding
4 | scrm-DΔC-cYFP (Arabidopsis thaliana) (domain or fragment) |  |  | binding [2]: binds; binding [4]: no binding; binding [3]: binds
5 | B1 |  |  | binding [5]: no binding
6 | B2 | binds | binds | 
7 | B3 | binds | binds | 
8 | B4 | binds | binds | 
9 | B5 | binds | binds | 

These are yes or no findings as the source states them, for the method shown. For some of these results: Binding can be weak; no strength is given. Tags and fused reporters may be left off the sequences shown. For some of these results: Binding seen in cells or lysates may run through a third protein.
